Reference: paper PMC7782792

Amino acid sequences for entries named in this document (tags omitted). A change or cut given only in a name is not applied to a line headed by its entry. Residues count along the entry.
UniProt P10636: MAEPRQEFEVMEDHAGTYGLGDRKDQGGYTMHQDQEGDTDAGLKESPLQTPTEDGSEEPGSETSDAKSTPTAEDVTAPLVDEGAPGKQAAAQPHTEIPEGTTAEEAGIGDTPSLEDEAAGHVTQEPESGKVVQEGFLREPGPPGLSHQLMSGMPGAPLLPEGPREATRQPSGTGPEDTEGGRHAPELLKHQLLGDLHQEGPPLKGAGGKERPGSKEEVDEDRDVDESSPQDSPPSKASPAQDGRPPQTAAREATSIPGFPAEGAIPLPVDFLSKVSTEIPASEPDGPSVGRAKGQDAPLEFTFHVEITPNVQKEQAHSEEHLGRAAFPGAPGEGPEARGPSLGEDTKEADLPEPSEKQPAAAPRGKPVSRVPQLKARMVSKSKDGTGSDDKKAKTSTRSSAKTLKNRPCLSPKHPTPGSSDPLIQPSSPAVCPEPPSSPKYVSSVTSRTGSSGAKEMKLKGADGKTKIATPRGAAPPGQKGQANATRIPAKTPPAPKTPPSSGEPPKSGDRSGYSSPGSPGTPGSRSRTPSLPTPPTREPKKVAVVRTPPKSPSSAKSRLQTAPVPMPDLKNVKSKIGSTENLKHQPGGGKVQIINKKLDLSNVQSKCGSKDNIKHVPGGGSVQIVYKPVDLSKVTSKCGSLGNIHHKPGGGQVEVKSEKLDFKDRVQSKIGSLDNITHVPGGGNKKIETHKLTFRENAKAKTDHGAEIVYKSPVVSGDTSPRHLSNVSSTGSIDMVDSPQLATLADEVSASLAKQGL
UniProt P06756, residues 31-992: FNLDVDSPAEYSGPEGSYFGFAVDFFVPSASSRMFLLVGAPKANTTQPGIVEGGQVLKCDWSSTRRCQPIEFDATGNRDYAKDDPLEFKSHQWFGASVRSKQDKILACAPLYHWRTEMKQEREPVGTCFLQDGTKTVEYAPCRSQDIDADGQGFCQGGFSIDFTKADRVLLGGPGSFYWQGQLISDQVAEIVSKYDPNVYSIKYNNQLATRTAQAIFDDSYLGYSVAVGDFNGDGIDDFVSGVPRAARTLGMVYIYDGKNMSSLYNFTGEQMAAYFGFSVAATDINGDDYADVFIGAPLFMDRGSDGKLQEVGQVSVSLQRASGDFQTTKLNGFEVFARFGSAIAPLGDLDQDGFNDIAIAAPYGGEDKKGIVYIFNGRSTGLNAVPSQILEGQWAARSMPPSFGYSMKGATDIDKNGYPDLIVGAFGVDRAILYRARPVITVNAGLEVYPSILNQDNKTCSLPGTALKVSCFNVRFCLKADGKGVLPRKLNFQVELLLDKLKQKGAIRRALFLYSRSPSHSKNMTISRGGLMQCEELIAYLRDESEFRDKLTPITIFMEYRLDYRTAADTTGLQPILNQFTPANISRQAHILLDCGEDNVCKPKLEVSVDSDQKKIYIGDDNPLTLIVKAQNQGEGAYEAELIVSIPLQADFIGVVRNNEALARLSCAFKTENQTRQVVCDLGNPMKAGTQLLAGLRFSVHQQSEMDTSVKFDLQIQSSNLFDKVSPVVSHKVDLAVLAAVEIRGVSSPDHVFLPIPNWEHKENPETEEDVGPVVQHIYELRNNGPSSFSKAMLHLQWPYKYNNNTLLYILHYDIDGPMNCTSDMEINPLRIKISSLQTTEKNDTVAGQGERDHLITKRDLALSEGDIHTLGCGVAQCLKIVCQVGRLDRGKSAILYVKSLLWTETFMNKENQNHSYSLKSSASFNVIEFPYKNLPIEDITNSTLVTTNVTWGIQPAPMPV
UniProt P05556: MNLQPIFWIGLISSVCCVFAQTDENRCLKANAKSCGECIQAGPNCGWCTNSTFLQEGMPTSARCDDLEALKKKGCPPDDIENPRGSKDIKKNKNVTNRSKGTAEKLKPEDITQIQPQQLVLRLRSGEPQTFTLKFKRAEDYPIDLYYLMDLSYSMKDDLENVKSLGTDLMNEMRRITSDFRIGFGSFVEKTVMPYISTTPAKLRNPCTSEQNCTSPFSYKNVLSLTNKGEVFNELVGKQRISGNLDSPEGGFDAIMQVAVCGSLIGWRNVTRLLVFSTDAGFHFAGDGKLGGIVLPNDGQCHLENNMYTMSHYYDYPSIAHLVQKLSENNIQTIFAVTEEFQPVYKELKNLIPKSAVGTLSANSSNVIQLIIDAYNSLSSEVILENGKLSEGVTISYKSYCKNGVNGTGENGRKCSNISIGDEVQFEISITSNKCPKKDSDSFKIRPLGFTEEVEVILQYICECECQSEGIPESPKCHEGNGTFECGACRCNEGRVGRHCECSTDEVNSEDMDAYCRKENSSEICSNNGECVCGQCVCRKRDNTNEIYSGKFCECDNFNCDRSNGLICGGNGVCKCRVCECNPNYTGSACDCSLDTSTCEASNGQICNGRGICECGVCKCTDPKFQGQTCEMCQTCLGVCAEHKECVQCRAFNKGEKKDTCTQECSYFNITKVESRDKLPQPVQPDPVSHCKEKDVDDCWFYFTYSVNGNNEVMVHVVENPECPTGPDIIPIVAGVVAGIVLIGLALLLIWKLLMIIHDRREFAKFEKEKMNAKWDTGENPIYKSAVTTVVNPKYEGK

Biological target: Tau-APEX2 (APEX2 fused to the C-terminus of Tau) (human) (UniProt P10636)
Test: co-IP; Tau-APEX2 incubated with purified ITGαV/β1 ectodomains; immunoprecipitation of Tau; immunoblotting; both purified

binding | Substance
binds | purified ITGαV ectodomain (of purified ITGαV/β1 ectodomains) (from UniProt P06756 31-992) (domain or fragment)
binds | purified ITGβ1 ectodomain (of purified ITGαV/β1 ectodomains) (from UniProt P05556 21-728) (domain or fragment)

No constants are given. Whether binding was seen depends on the method and setting. Binding seen in cells or lysates may run through a third protein. Binding calls can cover weak binding; strength is not graded here.
